# Source: the supplement of paper PMC8551327
# Where a name gives a salt, the structure may show the parent alone. The list shows a part of the results. Cut-off read from the data, not from the text of the source: active = 1.25 or more and inactive = the rest. Repeats are few or missing, and single values can be far off.
# Tested on: Kcc2-LUC knock-in mouse primary cortical neurons (Kcc2 promoter reporter)
# Assay: Kcc2 promoter-driven luciferase activity relative to vehicle control (fold of vehicle (ratio)); higher = stronger Kcc2 promoter activation (Kcc2 expression enhancer)
# Conditions: 100 nM; 48 h
row,SMILES,Kcc2 promoter-driven luciferase activity
1,"Cn1ncc2cc3c(Nc4ccc(Cl)cc4)cccc3nc21 [N-(4-chlorophenyl)-1-methylpyrazolo[3,4-b]quinolin-5-amine]",active: 1.33
2,CN(C)CCCN1c2ccc3ccccc3c2Sc2cccc(Cl)c21,inactive: 1.07
3,"Cc1ccc2[c](c1)[Sn]([c]1ccccc1)([c]1ccccc1)[c]1cc(C)ccc1N2C [2,5,8-Trimethyl-10,10-diphenylbenzo[b][1,4]benzazastannine]",inactive: 0.73
4,"O=C1c2ccccc2-c2c1c1ccccc1c(=O)n2Cc1ccccc1 [6-Benzylindeno[1,2-c]isoquinoline-5,11-dione]",inactive: 0.8
5,Cc1c(Cl)cccc1NC(=O)CC1Sc2ccccc2NC1=O (centres undefined),inactive: 0.82
6,CC1(C)CC(Nc2ccc(Nc3ccccc3)cc2)CC(C)(C)N1,active: 1.29
7,"CCN(CCO)CCNc1ccc(C)c2sc3ccccc3c(=O)c12 [Thioxanthen-9-one,hydrochloride]",inactive: 1
8,CN1CCN(CCSC2Cc3cc(Cl)ccc3Sc3ccccc32)CC1 (centres undefined),inactive: 1.13
9,Nc1ncnc2c([C@@H]3O[C@H](CO)[C@@H](O)[C@H]3O)c[nH]c12 [9-Deazaadenosine],active: 2.37
10,CC1(CO)C(O)CCC2(C)C1CCC1CC3CC12CCC3(O)COC(=O)CN (centres undefined) [Aphidicolin Glycinate],inactive: 0.691
11,C/C(=N\Nc1nc2ccccc2s1)c1ccncn1,inactive: 0.57
12,CN(C)[C@H]1CCC2[C@@H]3CCC4C[C@@H](NC(=O)NC(Cc5ccccc5)c5nccs5)CC[C@]4(C)C3CC[C@@]21C (some centres undefined),inactive: 0.66
13,Cc1cccc(Cl)c1NC(=O)/C=C/c1ccccc1 [(E)-N-(2-chloro-6-methylphenyl)-3-phenylprop-2-enamide],inactive: 1
14,O=C(O)c1ccc(Nc2c3ccccc3nc3ccccc23)cc1 [Sodium;4-(acridin-9-ylamino)benzoate],inactive: 1.2
15,CO[C@H]1[C@H](O)[C@@H](O)[C@H](O)[C@H](O)[C@H]1O [Quebrachitol],active: 1.57
16,COc1ccc([C@@H]2CC(=O)c3c(O)cc(O[C@@H]4O[C@H](CO)[C@@H](O)[C@H](O)[C@H]4O[C@@H]4O[C@@H](C)[C@H](O)[C@@H](O)[C@H]4O)cc3O2)cc1O [Neohesperidin],active: 1.25
17,Cc1cc(NC(=O)NC(=O)c2ccccc2NC(=O)CN)ccc1Oc1ncc(Br)cn1 [Glycylaminophenylbenzoylurea (HCl salt)],active: 1.26
18,CC(=NNC(=S)N1CCC1)c1ccccn1,inactive: 0.82
19,"CC1=CC(=O)c2cccc(NC3=NCCO3)c21 [4-(4,5-Dihydrooxazol-2-ylamino)-3-methyl-inden-1-one]",active: 5.62
20,COc1ccc(/C=C\c2cc(OC)c(OC)c(OC)c2)cc1OP(=O)(O)O [Combretastatin A-4 Phosphate Sodium salt],inactive: 1.13

row,SMILES,Kcc2 promoter-driven luciferase activity
1,CN1CCN(CCNc2ccc(CO)c3sc4ccccc4c(=O)c23)CC1,active: 1.55
2,S=C(Nc1ccccc1)N(/N=C/C=C/c1ccccc1)c1nnc(-c2ccccc2)c(-c2ccccc2)n1,inactive: 0.78
3,"CCOc1ccc(C(C)c2cc3c(cc2OC)OCO3)cc1 (centres undefined) [5-(1-(4-Ethoxyphenyl)ethyl)-6-methoxy-1,3-benzodioxole]",inactive: 0.99
4,Nc1nc(SCc2ccccc2Cl)c2[nH]cnc2n1 [6-[(2-Chlorophenyl)methylsulfanyl]-7H-purin-2-amine],inactive: 0.97
5,N#C/C(=C\c1ccc2ccccc2c1)C(=O)c1ccccc1 [2-Naphthylidene benzoylacetonitrile],inactive: 0.7
6,N[C@H](C(=O)O)[C@H]1ON=C(Cl)[C@H]1O [Hydroxy AT 125],inactive: 0.869
7,Nc1ccc2c(c1)S(=O)(=O)c1cc(N)ccc1-2 [Benzidine sulfone],inactive: 1.16
8,O=C1Cc2c(-c3ccccc3)cc(-c3cccc(Cl)c3)nc2-c2ccccc2N1,inactive: 0.87
9,"CCOC(=O)c1cc2c(OC)cc(OC)cc2oc1=O [ethyl 5,7-dimethoxy-2-oxochromene-3-carboxylate]",inactive: 0.85
10,CC(=O)OCC1=C[C@@H]2OC(=O)C3=CO[C@@H](O[C@@H]4O[C@H](CO)[C@@H](O)[C@H](O)[C@H]4O)[C@H]1[C@@H]32 [Asperuloside],inactive: 1.09
11,CN(C)c1ccc(/C=N/N=C2\C(=O)Nc3c(Cl)cc(Cl)cc32)cc1,inactive: 0.92
12,C=C1CC(COc2cc(=O)oc3ccccc23)(c2ccccc2)OC1=O (centres undefined),inactive: 0.97
13,"CCCC(=O)OCC1OC(n2ccc(N)nc2=O)C(OC(=O)CCC)C1OC(=O)CCC (centres undefined) [Cytosine, 2',3',5'-tributyrate]",inactive: 0.45
14,"Cc1cc(O)c(/C=N/C(N)=S)c(=O)o1 [[(Z)-(6-Methyl-2,4-dioxopyran-3-ylidene)methyl]thiourea]",inactive: 1.19
15,COc1ccc(/C=C2/C(=O)N(C(=O)c3ccccc3O)N=C2C)cc1,active: 1.25
16,"O=c1[nH]c(=O)n(C2CCCO2)cc1F [Tegafur, (R)-]",inactive: 1.24
17,O=C(NC1=C(Cl)C(=O)c2ccccc2C1=O)C(=O)C(C(=O)c1ccc2ccccc2c1)C1OC(=O)c2ccccc21 (centres undefined),inactive: 0.68
18,"COC1=CC(=O)c2c(ccc3ncnc(N)c23)C1=O [1-amino-8-methoxybenzo[f]quinazoline-7,10-dione]",inactive: 0.89
19,COc1c2c(c(OC)c3c1c(=O)c1ccccc1n3C)OCO2 [Melicopidine],inactive: 1.18

# In a second layout: entries from further up.
row	SMILES	Kcc2 promoter-driven luciferase activity
1	Cn1ncc2cc3c(Nc4ccc(Cl)cc4)cccc3nc21 [N-(4-chlorophenyl)-1-methylpyrazolo[3,4-b]quinolin-5-amine]	active: 1.33
2	S=C(Nc1ccccc1)N(/N=C/C=C/c1ccccc1)c1nnc(-c2ccccc2)c(-c2ccccc2)n1	inactive: 0.78
14	Cc1cc(O)c(/C=N/C(N)=S)c(=O)o1 [[(Z)-(6-Methyl-2,4-dioxopyran-3-ylidene)methyl]thiourea]	inactive: 1.19
